Data as given in PubChem BioAssay AID686938 (Drosophila RNAi Screening Center, 2013).
Screen: 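Looking for CRAC channel components and the factors controlling them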 (primary screen). Cells: Drosophila S2R+ cells. Knock-down reagent: long dsRNA against Drosophila genes, about 0.25 µg dsRNA per well, roughly 10,000 cells. Timing: 5 days of knock-down before the calcium assay. Challenge: thapsigargin (SERCA pump blocker) to empty calcium stores; entry signal taken 4 min after adding it. Measured: 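Duplicate raw fluo-4 intensities per well from a plate reader, at rest and four minutes after thapsigargin emptied calcium stores; entry-to-rest ratio filled for only some wells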. Scale: calcium entry signal: higher = stronger calcium signal after store depletion; entry to resting ratio: higher = more calcium entry relative to resting level; resting calcium signal: higher = higher resting calcium signal. Hit rule: 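Hit if the duplicate-averaged plate z-score for entry over resting signal is under −3; wells with weak total dye signal (Fmax z < −2) or more than 5 off-targets removed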. Calls: active = strongly reduced calcium entry; inactive = no strong reduction.
The deposit covers about 23,000 reagents; shown is an unselected part of those with a known target gene and a result. In the full data, 75 (0.33%) are marked active. 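Raw plate signals without normalisation; calls rest on plate z-scores that were not deposited; ratio present for only 364 wells.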 Reagents against one gene are numbered here. No sequences are given here. Not stated in the record: the dose of the treatment.

| gene knocked down | dsRNA no. | calcium entry signal, replicate 1 (fluorescence units) | calcium entry signal, replicate 2 (fluorescence units) | entry to resting ratio | resting calcium signal, replicate 1 (fluorescence units) | resting calcium signal, replicate 2 (fluorescence units) | Call |
| --- | --- | --- | --- | --- | --- | --- | --- |
| Hdc | 1 | 4.71e7 | 4.41e7 | – | 1.95e7 | 1.95e7 | inactive |
| CG30428 | 1 | 3.27e7 | 4.67e7 | – | 1.67e7 | 2.13e7 | inactive |
| CG4325 | 1 | 3.66e7 | 3.77e7 | 1.7 | 2.11e7 | 1.87e7 | inactive |
| CG4325 | 2 | 8.35e7 | 1.61e7 | – | 3.45e7 | 7.89e6 | inactive |
| CG1806 | 1 | 4.10e7 | 4.08e7 | – | 1.94e7 | 1.85e7 | inactive |
| CG10749 | 1 | 2.64e7 | 3.47e7 | – | 1.35e7 | 1.69e7 | inactive |
| Tbcd | 1 | 3.58e7 | – | – | 1.70e7 | – | inactive |
| CG34236 | 1 | 5.03e7 | 4.17e7 | – | 2.38e7 | 1.74e7 | inactive |
| egl | 1 | 4.07e7 | 4.84e7 | – | 2.11e7 | 2.20e7 | inactive |

In a second layout: entries from further up.
CG10749
- calcium entry signal, replicate 1 (fluorescence units): 2.64e7
- calcium entry signal, replicate 2 (fluorescence units): 3.47e7
- resting calcium signal, replicate 1 (fluorescence units): 1.35e7
- resting calcium signal, replicate 2 (fluorescence units): 1.69e7
- Call: inactive

Tbcd
- calcium entry signal, replicate 1 (fluorescence units): 3.58e7
- resting calcium signal, replicate 1 (fluorescence units): 1.70e7
- Call: inactive

CG34236
- calcium entry signal, replicate 1 (fluorescence units): 5.03e7
- calcium entry signal, replicate 2 (fluorescence units): 4.17e7
- resting calcium signal, replicate 1 (fluorescence units): 2.38e7
- resting calcium signal, replicate 2 (fluorescence units): 1.74e7
- Call: inactive

More entries follow.
| gene knocked down | dsRNA no. | calcium entry signal, replicate 1 (fluorescence units) | calcium entry signal, replicate 2 (fluorescence units) | entry to resting ratio | resting calcium signal, replicate 1 (fluorescence units) | resting calcium signal, replicate 2 (fluorescence units) | Call |
| --- | --- | --- | --- | --- | --- | --- | --- |
| a6 | 1 | 3.47e7 | 3.73e7 | – | 1.66e7 | 1.86e7 | inactive |
| Tk | 1 | 3.88e7 | 3.60e7 | – | 1.87e7 | 1.72e7 | inactive |
| Tk | 2 | 1.94e7 | 5.08e7 | – | 1.05e7 | 2.11e7 | inactive |
| CG5390 | 1 | 3.14e7 | 4.20e7 | – | 1.52e7 | 1.77e7 | inactive |
| Ubr1 | 1 | 2.96e7 | 2.50e7 | – | 1.47e7 | 1.24e7 | inactive |
| Charon | 1 | 3.45e7 | – | – | 2.28e7 | – | inactive |
| ppk16 | 1 | 3.59e7 | 4.28e7 | – | 1.77e7 | 1.88e7 | inactive |
| Nep3 | 1 | 4.02e7 | 4.81e7 | – | 2.10e7 | 2.17e7 | inactive |
| CG33757 | 1 | 2.69e7 | 3.66e7 | – | 1.40e7 | 1.73e7 | inactive |
| CG3520 | 1 | 3.46e7 | 4.76e7 | – | 1.86e7 | 2.14e7 | inactive |
| ast | 1 | 4.29e7 | – | – | 2.25e7 | – | inactive |
| CSN4 | 1 | 2.68e7 | 2.42e7 | – | 1.30e7 | 1.37e7 | inactive |
| esg | 1 | 4.45e7 | 3.00e7 | – | 2.18e7 | 1.34e7 | inactive |
| Alg-2 | 1 | 3.53e7 | 4.86e7 | – | 1.81e7 | 1.89e7 | inactive |
| Pkc53E | 1 | 2.98e7 | 3.83e7 | – | 1.39e7 | 1.95e7 | inactive |
| Pkc53E | 2 | 3.79e7 | 3.68e7 | – | 1.78e7 | 1.88e7 | inactive |
